Measurements taken from PMC10353822.
No constants are given. Whether binding was seen depends on the method and setting. In cells and extracts the contact can be indirect. Here binding means that the protein was enriched with, or labelled near, the bait; the list need not be complete.

Chains of the proteins cited; added tags and fusions are not shown.
UniProt Q9UPN9: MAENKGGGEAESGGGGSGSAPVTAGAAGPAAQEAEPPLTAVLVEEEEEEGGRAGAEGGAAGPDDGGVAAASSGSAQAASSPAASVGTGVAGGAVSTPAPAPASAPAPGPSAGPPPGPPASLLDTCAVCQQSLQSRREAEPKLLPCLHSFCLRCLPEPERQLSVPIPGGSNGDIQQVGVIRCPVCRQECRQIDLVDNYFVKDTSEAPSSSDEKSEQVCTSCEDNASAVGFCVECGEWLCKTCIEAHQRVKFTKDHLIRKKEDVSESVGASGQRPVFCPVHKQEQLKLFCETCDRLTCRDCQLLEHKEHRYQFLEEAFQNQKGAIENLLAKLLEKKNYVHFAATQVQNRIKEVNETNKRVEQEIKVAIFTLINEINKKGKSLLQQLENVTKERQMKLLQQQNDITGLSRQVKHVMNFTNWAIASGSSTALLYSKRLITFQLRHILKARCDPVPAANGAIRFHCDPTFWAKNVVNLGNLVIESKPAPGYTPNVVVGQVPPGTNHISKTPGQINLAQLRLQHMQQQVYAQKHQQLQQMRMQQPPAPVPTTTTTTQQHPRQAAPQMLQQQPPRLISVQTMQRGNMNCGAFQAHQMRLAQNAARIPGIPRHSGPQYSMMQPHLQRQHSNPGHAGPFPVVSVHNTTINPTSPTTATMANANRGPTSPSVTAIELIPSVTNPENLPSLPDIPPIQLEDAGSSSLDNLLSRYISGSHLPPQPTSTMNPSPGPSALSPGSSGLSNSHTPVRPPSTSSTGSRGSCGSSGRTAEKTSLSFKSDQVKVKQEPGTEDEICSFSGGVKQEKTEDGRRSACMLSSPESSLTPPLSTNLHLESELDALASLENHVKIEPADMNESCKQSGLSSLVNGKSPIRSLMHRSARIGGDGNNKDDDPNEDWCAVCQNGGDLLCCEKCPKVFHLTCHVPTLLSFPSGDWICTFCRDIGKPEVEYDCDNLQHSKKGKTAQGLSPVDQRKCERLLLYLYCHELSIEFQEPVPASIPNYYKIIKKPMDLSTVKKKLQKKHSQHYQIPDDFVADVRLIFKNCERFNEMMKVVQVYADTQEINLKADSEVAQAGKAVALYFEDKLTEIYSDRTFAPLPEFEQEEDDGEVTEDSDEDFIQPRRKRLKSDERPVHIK
UniProt P03206: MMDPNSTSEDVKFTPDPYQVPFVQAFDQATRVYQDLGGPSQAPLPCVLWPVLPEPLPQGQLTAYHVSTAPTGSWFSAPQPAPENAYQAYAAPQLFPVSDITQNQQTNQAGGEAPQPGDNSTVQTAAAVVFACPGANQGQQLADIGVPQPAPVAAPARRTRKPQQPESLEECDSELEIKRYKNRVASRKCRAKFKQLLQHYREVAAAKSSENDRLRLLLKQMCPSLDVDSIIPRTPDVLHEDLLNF

Molecular target: TRIM33 with C-terminal FLAG (UniProt Q9UPN9)
Assay: affinity purification with mass spectrometry; TRIM33-FLAG expressed in AGS-EBV-Z cells, dox 24 h; 6 mg lysate on anti-FLAG M2 magnetic beads 4 h at 4°C; RIPA buffer (50 mM Tris-HCl pH 8.0, 300 mM NaCl, 0.1% sodium deoxycholate, 0.5% NP40 substitute, 2 mM EDTA); two independent experiments

BZLF1 from the dox-inducible cassette (B95-8 EBV strain) (from UniProt P03206 1-245)
binding: binds
